The list shows only some results of the screen, not a fair sample: it is rich in T/C values a quarter to a half above the control, in often repeated tests (any T/C) and in doses without a T/C. Further doses and runs are listed elsewhere. T/C gives the treated animals as a percentage of the vehicle group. Some entries give survivors of the animals treated and no T/C: the source files T/C as zero there, which appears to mark a toxic dose or a test without result, not a measured value. Some survivor counts are full or nearly so, which does not show that the dose was tolerated: the source hardly ever lists a survival T/C far under the control, and the zero likely stands for such cases as well. Counts of survivors are from the toxicity check (mostly the fifth day) where no day follows; animals may have died later. Schedule codes are those of the source, read here as Q, the interval in days (D) or hours (H), X, the number of doses. Some entries were tested several times; the values are given in rising order. Some schedules carry Z or #; the key to these is not given. Where survival is the endpoint, the PubChem record calls one and a half times the control and up active, and a quarter to a half above the control has no call in these data; cut-offs in other NCI protocols can differ. Some T/C values are followed by the survivors on the day toxicity was checked, most often the fifth; without a count, all were alive then.
Test system: L1210 leukemia ip in BDF1 mice, survival T/C
Assay: NCI In Vivo Anticancer Drug Screen. Data for tumor model L1210 Leukemia (intraperitoneal) in B6D2F1 (BDF1) mice
Conditions: T/C endpoint: mean survival time, higher T/C = longer survival
[1] = dose: 200.0 mg/kg/injection, schedule: Q01DX001 (ip), vehicle: saline
[2] = dose: 400.0 mg/kg/injection, schedule: Q01DX001 (ip), vehicle: saline
[3] = dose: 100.0 mg/kg/injection, schedule: Q01DX009 (ip), vehicle: carboxymethylcellulose (CMC)

With `CN(N=O)C(=O)NCCCCCNC(=O)N(C)N=O` the T/C (dose: 100.0 mg/kg/injection, schedule: Q01DX Z (ip), vehicle: carboxymethylcellulose (CMC)) was 136 % of control, the T/C (dose: 125.0 mg/kg/injection, schedule: Q01DX Z (ip), vehicle: carboxymethylcellulose (CMC)) was 141 % of control and the T/C (dose: 420.0 mg/kg/injection, schedule: Q01DX001 (ip), vehicle: carboxymethylcellulose (CMC)) was 134 % of control. The T/C (dose: 840.0 mg/kg/injection, schedule: Q01DX001 (ip), vehicle: carboxymethylcellulose (CMC)) was 142 % of control [7 of 10 alive], the survivor count (dose: 1680.0 mg/kg/injection, schedule: Q01DX001 (ip), vehicle: carboxymethylcellulose (CMC)) was 0 of 10 and the survivor count (dose: 3360.0 mg/kg/injection, schedule: Q01DX001 (ip), vehicle: carboxymethylcellulose (CMC)) was 0 of 10.

For `CN(C)/C=C(\C#N)C=O`, the survivor count (dose: 300.0 mg/kg/injection, schedule: Q01DX001 (ip), vehicle: saline) was 1 of 6.

`Cc1cc(S(=O)(=O)F)ccc1NC(=O)NCc1ccc([N+](=O)[O-])cc1Cl` was tested, and the survivor count (dose: 400.0 mg/kg/injection, schedule: Q04DX003 (ip), vehicle: Klucel (hydroxypropylcellulose) (HPC)) was 0 of 6.

`CC(C)(/C=N/N=C(N)N)CCC#N` was tested, and the survivor count (dose: 960.0 mg/kg/injection, schedule: Q01DX Z (oral), vehicle: saline) was 1 of 6.

`CC(=O)Oc1c(C(C)(C)C)cc([N+](=O)[O-])c(C)c1[N+](=O)[O-]` was tested, and the survivor count (dose: 100.0 mg/kg/injection, schedule: Q04DX002 (ip), vehicle: Klucel (hydroxypropylcellulose) (HPC)) was 0 of 3, the survivor count (dose: 200.0 mg/kg/injection, schedule: Q04DX002 (ip), vehicle: Klucel (hydroxypropylcellulose) (HPC)) was 0 of 3 and the survivor count (dose: 400.0 mg/kg/injection, schedule: Q04DX002 (ip), vehicle: Klucel (hydroxypropylcellulose) (HPC)) was 0 of 3.

`O=C(NCCCC(NC(=O)OCc1ccccc1)C(=O)NCCCNCCCCNCCCNC(=O)C(CCCNC(=O)OCc1ccccc1)NC(=O)OCc1ccccc1)OCc1ccccc1` (stereo not given) was tested, and the survivor count (dose: 30.0 mg/kg/injection, schedule: Q01DX Z (ip), vehicle: saline) was 0 of 6, the survivor count (dose: 100.0 mg/kg/injection, schedule: Q01DX Z (ip), vehicle: saline) was 0 of 6 and the survivor count (dose: 300.0 mg/kg/injection, schedule: Q01DX Z (ip), vehicle: saline) was 0 of 6.

With `CCOCc1nc(NC(C)=O)nc(NC(C)=O)c1-c1ccc(Cl)cc1` the survivor count (dose: 300.0 mg/kg/injection, schedule: Q01DX001 (ip), vehicle: saline with Tween-80) was 0 of 6.

In the case of `CC1(C)N=C(N)N=C(N)N1c1cccc(OCCCC#N)c1`, the survivor count [1] is reported as 1 of 3 and the survivor count [2] is reported as 0 of 3.

`O=C(O)c1cccc(Br)c1[N+](=O)[O-]` was tested, and the survivor count [2] was 1 of 4.

For `Cn1ccnc1Oc1ccc(Cl)cc1`, the T/C (dose: 25.0 mg/kg/injection, schedule: Q04DX002 (ip), vehicle: Klucel (hydroxypropylcellulose) (HPC)) was 129 % of control.

For `CCCNC(c1ccccc1)=[N+]1C(C)CCCC1C` (stereo not given), the survivor count (dose: 50.0 mg/kg/injection, schedule: Q04DX002 (ip), vehicle: saline) was 0 of 3, the survivor count (dose: 100.0 mg/kg/injection, schedule: Q04DX002 (ip), vehicle: saline) was 3 of 3 and the survivor count (dose: 200.0 mg/kg/injection, schedule: Q04DX002 (ip), vehicle: saline) was 3 of 3. The survivor count (dose: 400.0 mg/kg/injection, schedule: Q04DX002 (ip), vehicle: saline) was 3 of 3.

`CC(=O)O[C@H]1[C@H]2O[C@]23[C@@H]2CC[C@]4(O)C[C@@H](O)CC[C@]4(C)[C@H]2CC[C@]3(C)[C@H]1c1ccc(=O)oc1` was tested, and the survivor count (dose: 400.0 mg/kg/injection, schedule: Q01DX001 (ip), vehicle: other) was 3 of 6.

In the case of `O=[N+]([O-])c1ccc(C[n+]2ccccc2)cc1`, the survivor count (dose: 100.0 mg/kg/injection, schedule: Q01DX009 (ip), vehicle: saline) is reported as 3 of 6 and the survivor count (dose: 200.0 mg/kg/injection, schedule: Q01DX009 (ip), vehicle: saline) is reported as 0 of 6.

In the case of `CC1(C)C[N+](Cc2ccccc2)(Cc2ccccc2)C1`, the survivor count (dose: 12.5 mg/kg/injection, schedule: Q01DX009 (ip), vehicle: saline) is reported as 6 of 6, the survivor count (dose: 25.0 mg/kg/injection, schedule: Q01DX009 (ip), vehicle: saline) is reported as 0 of 6 and the survivor count (dose: 100.0 mg/kg/injection, schedule: Q04DX003 (ip), vehicle: saline) is reported as 0 of 6. The survivor count (dose: 200.0 mg/kg/injection, schedule: Q04DX003 (ip), vehicle: saline) was 0 of 6 and the survivor count (dose: 400.0 mg/kg/injection, schedule: Q04DX003 (ip), vehicle: saline) was 0 of 6.

For `CCN(CCO)CCNc1ccc(CO)c2sc3cc(Cl)ccc3c(=O)c12`, the survivor count (dose: 400.0 mg/kg/injection, schedule: Q01DX009 (ip), vehicle: Klucel (hydroxypropylcellulose) (HPC)) was 3 of 6.

For `CNC(=O)Nc1cc(C)ccc1Cl`, the T/C [3] was 91, 96 [2 of 3 alive], 106 % of control, the survivor count [3] was 6 of 6 and the T/C (dose: 200.0 mg/kg/injection, schedule: Q01DX009 (ip), vehicle: carboxymethylcellulose (CMC)) was 87 [2 of 3 alive], 91, 96, 109 % of control. The survivor count (dose: 400.0 mg/kg/injection, schedule: Q01DX009 (ip), vehicle: carboxymethylcellulose (CMC)) was 0 of 3.

With `CCCCCN(CCCCC)CCCNc1c2c(nc3ccc(OC)cc13)CCCC2` the survivor count (dose: 30.0 mg/kg/injection, schedule: Q01DX001 (ip), vehicle: saline) was 3 of 6, the survivor count (dose: 40.0 mg/kg/injection, schedule: Q01DX001 (ip), vehicle: saline) was 0 of 4 and the survivor count (dose: 50.0 mg/kg/injection, schedule: Q01DX001 (ip), vehicle: saline) was 0 of 4 and 1 of 4. The survivor count (dose: 80.0 mg/kg/injection, schedule: Q01DX001 (ip), vehicle: saline) was 0 of 4, the survivor count (dose: 100.0 mg/kg/injection, schedule: Q01DX001 (ip), vehicle: saline) was 0 of 4 and the survivor count [1] was 0 of 4. For the same molecule, the survivor count [2] was 0 of 4.

In the case of `C[n+]1cccc2c(C(=O)O)cccc21`, the survivor count [2] is reported as 3 of 6.

Reference: PubChem BioAssay AID248 (DTP/NCI, 2004)
